No constants are given. Whether binding was seen depends on the method and setting. In cells and extracts the contact can be indirect. For some assays here: Binding can be weak; no strength is given. Where a sequence is shown, tags or fusion partners need not be part of it.
What was measured:
[1] = biological target: HA-tagged iRhom2 lacking the iRhom homology domain (IRHD) (mouse) (UniProt Q80WQ6); assay: co-IP; HEK 293ET transfected with iTAP-FLAG and HA-tagged proteins; 1% Triton X-100, 150 mM NaCl, 50 mM Tris-HCl pH 7.4 lysis; anti-HA magnetic beads; washes with 300 mM NaCl at 4°C; FLAG western blot
[2] = biological target: HA-tagged iRhom2 mutant lacking all of the cytoplasmic tail (∆Nterm) (mouse); assay: as above

The chains behind the UniProt entries cited, without tags or fusion partners. Where a name states a change or a piece, a line headed by the entry shows the natural chain unless it says otherwise.
UniProt Q80WQ6: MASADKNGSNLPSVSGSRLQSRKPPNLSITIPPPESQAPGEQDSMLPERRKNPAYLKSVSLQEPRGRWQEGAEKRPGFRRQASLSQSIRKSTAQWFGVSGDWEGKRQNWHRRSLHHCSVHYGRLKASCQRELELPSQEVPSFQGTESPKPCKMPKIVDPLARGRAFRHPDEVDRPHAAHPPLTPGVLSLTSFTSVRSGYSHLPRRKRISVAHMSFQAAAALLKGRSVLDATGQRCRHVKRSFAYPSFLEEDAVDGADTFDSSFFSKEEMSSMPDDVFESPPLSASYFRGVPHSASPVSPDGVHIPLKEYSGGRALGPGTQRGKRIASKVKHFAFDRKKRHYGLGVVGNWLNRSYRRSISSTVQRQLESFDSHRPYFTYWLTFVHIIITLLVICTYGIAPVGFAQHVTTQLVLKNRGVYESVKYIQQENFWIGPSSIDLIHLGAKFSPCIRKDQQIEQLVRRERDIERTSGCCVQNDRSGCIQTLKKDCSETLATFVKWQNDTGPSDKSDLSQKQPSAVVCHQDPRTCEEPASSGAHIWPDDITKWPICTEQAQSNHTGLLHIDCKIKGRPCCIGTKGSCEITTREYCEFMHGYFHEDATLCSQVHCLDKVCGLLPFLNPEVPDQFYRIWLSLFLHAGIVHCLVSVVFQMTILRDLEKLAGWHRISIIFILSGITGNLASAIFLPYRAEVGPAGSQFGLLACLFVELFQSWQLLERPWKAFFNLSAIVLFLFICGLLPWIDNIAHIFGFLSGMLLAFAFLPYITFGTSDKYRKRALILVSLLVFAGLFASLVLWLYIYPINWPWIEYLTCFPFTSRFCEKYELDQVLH

binding [1]: binds
binding [2]: no binding
B1: human iTAP-FLAG (protein, UniProt Q9BZ67 1-464)
chain: MDGTEGSAGQPGPAERSHRSSVSSVGARAADVLVYLADDTVVPLAVENLPSLSAHELHRAVREVLQLPDIALDVFALWLVSPLLEVQLKPKHQPYKLGRQWPELLLRFTSAPDDDVAMDEPFLQFRRNVFFPKRRELQIHDEEVLRLLYEEAKGNVLAARYPCDVEDCEALGALVCRVQLGPYQPGRPAACDLREKLDSFLPAHLCKRGQSLFAALRGRGARAGPGEQGLLNAYRQVQEVSSDGGCEAALGTHYRAYLLKCHELPFYGCAFFHGEVDKPAQGFLHRGGRKPVSVAISLEGVHVIDSREKHVLLGLRFQELSWDHTSPEEEEPILWLEFDGDSEGTPVNKLLKIYSKQAELMSSLIEYCIELSQAAEPAGPQDSATGSPSDPSSSLAPVQRPKLRRQGSVVSSRIQHLSTIDYVEDGKGIRRVKPKRTTSFFSRQLSLGQGSYTVVQPGDSLEQG
